Assay results from PubChem BioAssay AID587 (National Center for Advancing Translational Sciences (NCATS), 2007).
The campaign covered roughly 59,000 compounds. About 35 (0.06%) were called active. Inconclusive means that the source gave no clear call. Such entries were picked first, then a sample of the others. Rule as the data show it: active = max dye-equivalent concentration above about 10 nM; inconclusive = between about 1.1 nM and that limit; inactive = weaker than that.

Assay: qHTS Assay for Spectroscopic Profiling in Texas Red Spectral Region
Settings: Compound fluorescence, Texas Red channel, 547/618 nm; hits give high values
Summary of the method: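 Compound fluorescence was read after 15 min at room temperature in 100 mM Tris, pH 8.0, using 547 nm excitation and 618 nm emission across a concentration series. It was expressed as Texas Red dye-equivalent concentration from an on-plate standard curve.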
With `O=C(NCc1ccco1)c1nc2ncccn2n1` the max dye-equivalent concentration was inconclusive: 1.8 nM. For `Cc1ccc(NC(=O)N(Cc2ccco2)C(C)c2ccco2)cc1C` (stereo not given), the max dye-equivalent concentration was inconclusive: 2 nM. For `COCc1nc2ccccc2n1CCOc1ccccc1OC`, the max dye-equivalent concentration was inconclusive: 1.7 nM. In the case of `Clc1ccc(NC2=NCCC2)cc1Cl`, the max dye-equivalent concentration is reported as inconclusive: 1.1 nM. With `Cc1noc(C)c1CSc1nnc(-c2cc(Cl)ccc2Cl)n1N` the max dye-equivalent concentration was inconclusive: 2.4 nM. With `Cc1noc(C)c1-c1ccc2ncnc(N3CCN(C)CC3)c2c1` the max dye-equivalent concentration was “inactive”. In the case of `CN(C)c1ccc(-c2cncnc2Nc2ccccc2)cc1`, the max dye-equivalent concentration is reported as “inactive”. With `COc1ccc(OC)c(C2c3c(oc4ccccc4c3=O)C(=O)N2CCCN(C)C)c1` (stereo not given) the max dye-equivalent concentration was inconclusive: 2 nM. For `COCCNc1cc(-c2c(C)noc2C)ncn1`, the max dye-equivalent concentration was “inactive”. For `CCC(CC)NC(=O)c1n[nH]c(=O)c2ccccc12`, the max dye-equivalent concentration was inconclusive: 2.7 nM. In the case of `CCCCCn1c(CN(C)Cc2ccccc2)nc2c1c(=O)n(C)c(=O)n2C`, the max dye-equivalent concentration is reported as inconclusive: 1.2 nM. For `COc1ccc2[nH]c(=O)c(CN(CCN3CCCC3)C(=O)Nc3ccccc3Cl)cc2c1`, the max dye-equivalent concentration was inconclusive: 1.1 nM. For `NCCC[C@@](N)(C(=O)O)C(F)F`, the max dye-equivalent concentration was “inactive”. In the case of `Cc1cnc(C(=O)OCC(=O)Nc2ccc(Cl)cc2)cn1`, the max dye-equivalent concentration is reported as inconclusive: 2.1 nM. In the case of `Cn1c2c(c(=O)n(C)c1=O)CN(CC1CCCO1)CN2` (stereo not given), the max dye-equivalent concentration is reported as inconclusive: 1.5 nM. In the case of `Cc1c(NC(=O)COC(=O)c2cc3c4ccccc4n(C)c3s2)c(=O)n(-c2ccccc2)n1C`, the max dye-equivalent concentration is reported as inconclusive: 1.7 nM. With `CCOC(=O)CSc1nnc([C@H](CC(C)C)NC(=O)OC(C)(C)C)o1` the max dye-equivalent concentration was inconclusive: 1.1 nM. For `CCOc1ccccc1NC(=O)c1ccccc1-c1nc(-c2ccccc2OC)no1`, the max dye-equivalent concentration was inconclusive: 1.2 nM. With `CCCCN(CCCNC(=O)C1CCN(S(=O)(=O)N2CCOCC2)CC1)c1ccccc1` the max dye-equivalent concentration was inconclusive: 2.1 nM. In the case of `COc1ccc(Cl)cc1NC(=O)CN1C(=O)CSC1=O`, the max dye-equivalent concentration is reported as “inactive”. In the case of `CCn1c(SCC(=O)Nc2cc(NC(C)=O)ccc2OC)nnc1-c1cccnc1`, the max dye-equivalent concentration is reported as inconclusive: 1.6 nM. With `CCCc1[nH]nc2c1C(c1ccc(OCCN3CCOCC3)c(OCC)c1)C(C#N)=C(N)O2` (stereo not given) the max dye-equivalent concentration was inconclusive: 1.5 nM. In the case of `CCn1c(SCC(=O)NCc2ccc(C)cc2)nnc1-c1ccncc1`, the max dye-equivalent concentration is reported as inconclusive: 1.7 nM. In the case of `Cc1nc2ccccn2c1/C(O)=C1\C(=O)C(=O)N(CCCn2ccnc2)C1c1ccncc1` (stereo not given), the max dye-equivalent concentration is reported as inconclusive: 1.3 nM. In the case of `O=C1NCCN1C(=O)c1ccccc1F`, the max dye-equivalent concentration is reported as inconclusive: 1.7 nM.
